From publication PMC4102794
No constants are given. Whether binding was seen depends on the method and setting. In cells and extracts the contact can be indirect. Some binding calls cover weakened binding; strength is not graded here.

The chains behind the UniProt entries cited, without tags or fusion partners.
UniProt Q12834: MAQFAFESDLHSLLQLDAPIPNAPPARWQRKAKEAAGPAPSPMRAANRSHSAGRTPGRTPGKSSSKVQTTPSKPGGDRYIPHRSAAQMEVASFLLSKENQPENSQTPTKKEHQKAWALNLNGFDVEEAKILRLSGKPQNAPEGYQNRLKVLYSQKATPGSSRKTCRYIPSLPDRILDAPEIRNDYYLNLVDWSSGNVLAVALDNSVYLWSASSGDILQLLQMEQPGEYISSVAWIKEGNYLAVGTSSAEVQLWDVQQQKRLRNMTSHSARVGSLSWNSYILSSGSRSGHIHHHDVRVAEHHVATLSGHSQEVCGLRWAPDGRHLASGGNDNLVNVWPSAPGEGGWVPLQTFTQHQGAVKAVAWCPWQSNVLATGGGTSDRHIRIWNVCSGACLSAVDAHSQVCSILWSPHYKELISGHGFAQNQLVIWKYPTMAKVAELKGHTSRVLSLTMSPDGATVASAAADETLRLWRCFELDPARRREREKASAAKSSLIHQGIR
UniProt Q9UM11: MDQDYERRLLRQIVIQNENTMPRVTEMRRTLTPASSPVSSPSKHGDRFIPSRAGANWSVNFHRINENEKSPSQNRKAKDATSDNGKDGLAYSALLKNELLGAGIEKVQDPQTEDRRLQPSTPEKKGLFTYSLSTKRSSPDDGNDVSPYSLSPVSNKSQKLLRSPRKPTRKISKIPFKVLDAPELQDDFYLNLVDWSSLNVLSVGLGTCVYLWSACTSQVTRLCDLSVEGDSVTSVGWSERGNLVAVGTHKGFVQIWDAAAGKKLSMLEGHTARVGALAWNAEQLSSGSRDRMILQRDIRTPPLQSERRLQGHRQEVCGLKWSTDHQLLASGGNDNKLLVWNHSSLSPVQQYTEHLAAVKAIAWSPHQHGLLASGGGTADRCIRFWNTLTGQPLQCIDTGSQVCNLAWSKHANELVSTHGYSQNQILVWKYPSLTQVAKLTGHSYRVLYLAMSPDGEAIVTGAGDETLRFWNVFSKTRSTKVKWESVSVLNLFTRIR

B1: BRD7 N-terminus (residues 1-361) (domain or fragment, UniProt Q9NPI1 1-361)
chain: MGKKHKKHKSDKHLYEEYVEKPLKLVLKVGGNEVTELSTGSSGHDSSLFEDKNDHDKHKDRKRKKRKKGEKQIPGEEKGRKRRRVKEDKKKRDRDRVENEAEKDLQCHAPVRLDLPPEKPLTSSLAKQEEVEQTPLQEALNQLMRQLQRKDPSAFFSFPVTDFIAPGYSMIIKHPMDFSTMKEKIKNNDYQSIEELKDNFKLMCTNAMIYNKPETIYYKAAKKLLHSGMKILSQERIQSLKQSIDFMADLQKTRKQKDGTDTSQSGEDGGCWQREREDSGDAEAHAFKSPSKENKKKDKDMLEDKFKSNNLEREQEQLDRIVKESGGKLTRRLVNSQCEFERRKPDGTTTLGLLHPVDPIV
B2: BRD7 C-terminus (residues 361-651) (domain or fragment, UniProt Q9NPI1 361-651)
chain: VGEPGYCPVRLGMTTGRLQSGVNTLQGFKEDKRNKVTPVLYLNYGPYSSYAPHYDSTFANISKDDSDLIYSTYGEDSDLPSDFSIHEFLATCQDYPYVMADSLLDVLTKGGHSRTLQEMEMSLPEDEGHTRTLDTAKEMEITEVEPPGRLDSSTQDRLIALKAVTNFGVPVEVFDSEEAEIFQKKLDETTRLLRELQEAQNERLSTRPPPNMICLLGPSYREMHLAEQVTNNLKELAQQVTPGDIVSTYGVRKAMGISIPSPVMENNFVDLTEDTEEPKKTDVAECGPGGS

Key:
HA-tagged Cdc20 (human) = HA-tagged Cdc20 (human) (UniProt Q12834); assay: co-IP; deletion constructs of BRD7, Cdh1 or Cdc20 to map the binding domains; tags and cells not given
HA-tagged Cdh1 (human) = HA-tagged Cdh1 (human) (UniProt Q9UM11); assay: as above

Binder	binding (HA-tagged Cdc20 (human))	binding (HA-tagged Cdh1 (human))
B1	binds	binds
B2	binds	binds
